The target of this assay is T1, GST-apoptin (Chicken Anemia Virus) (UniProt P54094).
T1 sequence: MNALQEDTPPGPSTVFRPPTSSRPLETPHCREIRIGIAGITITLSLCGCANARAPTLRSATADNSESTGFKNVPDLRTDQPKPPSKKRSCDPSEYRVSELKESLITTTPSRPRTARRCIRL
Put plainly: pull-down; 5–10 µg GST-apoptin with 500 µg total cell lysate on glutathione sepharose beads, overnight at 4°C, IP buffer (50 mM Tris-HCl pH 8.0, NaCl 150 mM, 0.5% detergent, EDTA 1 mM, protease and phosphatase inhibitors), at least six washes; immunoblot with anti-Bcr-Abl or anti-Bcr antibody (Fig. 2B, 2D); only the target purified.

For 4 substances, binding results are on record in publication PMC3254606.

Results are given in words; binding and its absence hold for the method and conditions named. Binding seen in cells or lysates may run through a third protein. Binding calls can cover weak binding; strength is not graded here. Tags and fused reporters may be left off the sequences shown.

On to Bcr-Abl^p210P1013L-R1053L, for which the binding entry was “binds weakly”.

Regarding Bcr-Abl^p210ΔSH2, the binding entry is recorded as “binds”.

On to Bcr-Abl^p210ΔSH2 ΔSH3, for which the binding result was “no binding”.

Regarding Bcr-Abl^p210ΔSH3-R1053L, the binding entry is listed as “no binding”.
